Experimental data from paper PMC13156293.
No constants are given. Whether binding was seen depends on the method and setting. Binding seen in cells or lysates may run through a third protein. Some entries that bind do so weakly or less than the wild type. For part of these data: Sequences can lack the tags named with a protein.

Chains of the proteins cited; added tags and fusions are not shown. Lines headed by an entry give the natural chain unless they say otherwise; changes in a name come on top. A line that says so, or that is headed by a name, gives the form on record, which may keep a tag or linker.
UniProt Q96J02: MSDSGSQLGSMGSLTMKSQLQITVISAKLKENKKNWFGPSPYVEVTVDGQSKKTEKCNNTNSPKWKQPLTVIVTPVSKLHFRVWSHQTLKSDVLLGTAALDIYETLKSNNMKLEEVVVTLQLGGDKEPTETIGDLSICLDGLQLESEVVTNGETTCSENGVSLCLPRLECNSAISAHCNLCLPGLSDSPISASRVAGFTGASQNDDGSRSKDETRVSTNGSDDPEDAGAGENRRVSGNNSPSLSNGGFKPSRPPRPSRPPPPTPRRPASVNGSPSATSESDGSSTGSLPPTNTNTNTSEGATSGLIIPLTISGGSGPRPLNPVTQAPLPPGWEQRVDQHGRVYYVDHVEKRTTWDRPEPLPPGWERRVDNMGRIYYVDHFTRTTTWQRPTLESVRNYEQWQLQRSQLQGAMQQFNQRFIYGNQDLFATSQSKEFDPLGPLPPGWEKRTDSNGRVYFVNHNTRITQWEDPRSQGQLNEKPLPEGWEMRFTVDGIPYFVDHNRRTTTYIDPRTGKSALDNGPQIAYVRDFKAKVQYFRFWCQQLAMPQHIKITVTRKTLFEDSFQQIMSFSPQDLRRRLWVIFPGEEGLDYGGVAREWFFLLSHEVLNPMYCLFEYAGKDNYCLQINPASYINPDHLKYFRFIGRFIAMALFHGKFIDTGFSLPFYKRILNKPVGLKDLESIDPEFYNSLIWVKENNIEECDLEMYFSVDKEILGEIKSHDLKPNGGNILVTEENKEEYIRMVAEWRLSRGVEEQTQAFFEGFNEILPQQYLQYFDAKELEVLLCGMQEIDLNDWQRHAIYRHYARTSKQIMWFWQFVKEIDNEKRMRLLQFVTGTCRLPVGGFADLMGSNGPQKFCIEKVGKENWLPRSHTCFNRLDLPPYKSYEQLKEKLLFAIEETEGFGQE
Flag-Itch wild type (Q96J02, form named): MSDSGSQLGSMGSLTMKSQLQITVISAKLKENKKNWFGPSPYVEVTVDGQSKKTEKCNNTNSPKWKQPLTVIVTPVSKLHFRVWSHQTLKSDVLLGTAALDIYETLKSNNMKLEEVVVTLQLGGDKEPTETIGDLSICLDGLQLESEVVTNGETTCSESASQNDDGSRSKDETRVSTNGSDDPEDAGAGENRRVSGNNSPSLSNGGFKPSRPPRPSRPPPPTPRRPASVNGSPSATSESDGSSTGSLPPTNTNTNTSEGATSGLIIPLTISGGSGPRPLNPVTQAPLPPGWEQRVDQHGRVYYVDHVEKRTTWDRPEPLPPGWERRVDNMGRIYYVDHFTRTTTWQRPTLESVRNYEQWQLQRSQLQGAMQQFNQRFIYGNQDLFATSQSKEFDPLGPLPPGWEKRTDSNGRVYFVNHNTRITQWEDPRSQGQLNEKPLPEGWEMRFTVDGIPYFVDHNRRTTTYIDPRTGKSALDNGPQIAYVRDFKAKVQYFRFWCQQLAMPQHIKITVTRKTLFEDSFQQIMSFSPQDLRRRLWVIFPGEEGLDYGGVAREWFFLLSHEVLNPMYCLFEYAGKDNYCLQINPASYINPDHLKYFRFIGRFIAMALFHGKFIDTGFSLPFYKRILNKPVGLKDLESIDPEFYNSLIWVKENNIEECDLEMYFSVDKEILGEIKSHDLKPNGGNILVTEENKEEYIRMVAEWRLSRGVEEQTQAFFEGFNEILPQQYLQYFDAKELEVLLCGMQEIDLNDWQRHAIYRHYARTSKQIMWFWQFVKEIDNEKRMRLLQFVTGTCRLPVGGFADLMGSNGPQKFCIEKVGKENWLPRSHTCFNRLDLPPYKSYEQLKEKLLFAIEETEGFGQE
UniProt Q8C863: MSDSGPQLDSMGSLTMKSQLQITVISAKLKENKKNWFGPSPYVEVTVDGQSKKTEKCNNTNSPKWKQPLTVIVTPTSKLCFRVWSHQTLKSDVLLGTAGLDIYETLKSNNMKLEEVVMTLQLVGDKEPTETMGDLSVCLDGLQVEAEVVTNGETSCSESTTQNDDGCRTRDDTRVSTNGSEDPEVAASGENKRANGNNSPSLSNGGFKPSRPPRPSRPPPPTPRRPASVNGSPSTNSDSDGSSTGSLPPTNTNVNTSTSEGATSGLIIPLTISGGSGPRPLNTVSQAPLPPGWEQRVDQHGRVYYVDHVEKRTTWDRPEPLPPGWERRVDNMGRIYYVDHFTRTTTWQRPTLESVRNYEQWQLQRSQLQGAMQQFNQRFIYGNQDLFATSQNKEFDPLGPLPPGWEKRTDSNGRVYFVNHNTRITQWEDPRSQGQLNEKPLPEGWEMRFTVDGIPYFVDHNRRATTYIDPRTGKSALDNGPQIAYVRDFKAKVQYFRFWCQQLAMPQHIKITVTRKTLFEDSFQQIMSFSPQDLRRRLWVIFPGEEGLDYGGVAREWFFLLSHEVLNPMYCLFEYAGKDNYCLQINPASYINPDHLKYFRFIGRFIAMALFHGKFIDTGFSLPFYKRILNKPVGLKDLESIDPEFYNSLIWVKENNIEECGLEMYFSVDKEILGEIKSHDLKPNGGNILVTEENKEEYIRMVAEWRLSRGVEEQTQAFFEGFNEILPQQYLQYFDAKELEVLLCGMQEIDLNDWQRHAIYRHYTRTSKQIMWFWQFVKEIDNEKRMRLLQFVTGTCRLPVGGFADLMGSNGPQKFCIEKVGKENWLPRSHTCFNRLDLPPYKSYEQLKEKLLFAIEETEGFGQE

How the values were obtained:
[1] = target: Flag-Itch wild type (UniProt Q96J02); assay: co-IP; HEK293T co-transfected with the tagged plasmids; whole-cell extracts in 50 mM Tris-HCl pH 7.5, 150 mM NaCl, 1% NP-40, 5 mM EDTA lysis buffer; antibody or anti-Flag M2 agarose, 4 °C; immunoblot
[2] = target: endogenous MAML1 of WT MEFs (mouse (endogenous in WT MEFs)) (UniProt Q6T264); assay: co-IP; endogenous proteins from WT MEF whole-cell extracts; antibody and protein A/G agarose, 4 °C; immunoblot
[3] = target: GST-Itch (UniProt Q96J02); assay: pull-down; recombinant GST fusion bound to Glutathione Sepharose 4B beads, incubated 2 h with precleared whole-cell extracts of transfected HEK293T; washed with 20 mM Tris-HCl pH 8, 200 mM NaCl, 1 mM EDTA, NP-40; eluted with reduced glutathione; anti-Flag immunoblot; only the target purified

Molecule: V5-MAML1 (pHAGE-N-V5-MAML1-FL) (from UniProt Q92585 1-1016)
- binding [1]: binds

Molecule: endogenous Itch of WT MEFs (from UniProt Q8C863 1-864) (enzyme)
- binding [2]: binds

B1: Flag-MAML1 303-1016 (pFLAG-CMV-2 MAML1 (303-1016)) (domain or fragment, UniProt Q92585 303-1016)
chain: SPAAFEQEQLGSPQVRAGSAGQTFLGPSSAPVSTDSPSLGGSQTLFHTSGQPRADNPSPNLMPASAQAQNAQRALAGVVLPSQGPGGASELSSAHQLQQIAAKQKREQMLQNPQQATPAPAPGQMSTWQQTGPSHSSLDVPYPMEKPASPSSYKQDFTNSKLLMMPSVNKSSPRPGGPYLQPSHVNLLSHQPPSNLNQNSANNQGSVLDYGNTKPLSHYKADCGQGSPGSGQSKPALMAYLPQQLSHISHEQNSLFLMKPKPGNMPFRSLVPPGQEQNPSSVPVQAQATSVGTQPPAVSVASSHNSSPYLSSQQQAAVMKQHQLLLDQQKQREQQQKHLQQQQFLQRQQHLLAEQEKQQFQRHLTRPPPQYQDPTQGSFPQQVGQFTGSSAAVPGMNTLGPSNSSCPRVFPQAGNLMPMGPGHASVSSLPTNSGQQDRGVAQFPGSQNMPQSSLYGMASGITQIVAQPPPQATNGHAHIPRQTNVGQNTSVSAAYGQNSLGSSGLSQQHNKGTLNPGLTKPPVPRVSPAMGGQNSSWQHQGMPNLSGQTPGNSNVSPFTAASSFHMQQQAHLKMSSPQFSQAVPNRPMAPMSSAAAVGSLLPPVSAQQRTSAPAPAPPPTAPQQGLPGLSPAGPELGAFSQSPASQMGGRAGLHCTQAYPVRTAGQELPFAYSGQPGGSGLSSVAGHTDLIDSLLKNRTSEEWMSDLDDLLGSQ
- binding [3]: binds
